The values that follow come from PubChem BioAssay AID248 (DTP/NCI, 2004).

The list is a part of this screen's results and no random one: it gathers tests that were run many times, whatever their T/C, doses with no T/C, and many T/C values between a quarter and a half above the control. Other doses and runs of a compound stand elsewhere. T/C is the treated group as % of the vehicle group. Some entries give survivors of the animals treated and no T/C: the source holds a T/C of zero for them, seemingly a mark for toxic or unscored doses. Some doses without a T/C left all or most animals alive at the check, yet need not have been tolerated: survival well below the control is almost never listed, so the zero probably covers shortened survival too. Survivors were counted at the toxicity check, usually on the fifth day, unless a day is given; later deaths do not show. Schedule codes are those of the source, taken here to give the interval after Q, in days (D) or hours (H), and the number of doses after X. Some schedule codes hold Z or #, which are not explained here. Some structures stand for samples that the source files as different forms (salt, stereo form or complex); doses refer to the form tested. Counts like (3×) count equal records among those shown. Some entries were tested several times; their values stand side by side, smallest first. For survival time, this PubChem deposit counts one and a half times the control or more as active, and values a quarter to a half above the control carry no call in these data; other NCI protocols may use other cut-offs.

The test relates to L1210 leukemia ip in BDF1 mice, survival T/C. Description: NCI In Vivo Anticancer Drug Screen. Data for tumor model L1210 Leukemia (intraperitoneal) in B6D2F1 (BDF1) mice. As to conditions: T/C endpoint: mean survival time, higher T/C = longer survival.
[1] abbreviates: dose: 400.0 mg/kg/injection, schedule: Q04DX003 (ip), vehicle: saline.
Setting [2] is: dose: 400.0 mg/kg/injection, schedule: Q01DX009 (ip), vehicle: saline.
Setting [3] is: dose: 200.0 mg/kg/injection, schedule: Q01DX009 (ip), vehicle: saline.
Where [4] appears, read: dose: 400.0 mg/kg/injection, schedule: Q04DX003 (ip), vehicle: Klucel (hydroxypropylcellulose) (HPC).
Setting [5] is: dose: 150.0 mg/kg/injection, schedule: Q01DX001 (ip), vehicle: saline.
Setting [6] is: dose: 300.0 mg/kg/injection, schedule: Q01DX001 (ip), vehicle: saline.
[7] abbreviates: dose: 400.0 mg/kg/injection, schedule: Q01DX001 (ip), vehicle: saline.
Where [8] appears, read: dose: 200.0 mg/kg/injection, schedule: Q04DX002 (ip), vehicle: saline.
[9] abbreviates: dose: 100.0 mg/kg/injection, schedule: Q01DX001 (ip), vehicle: saline.
The mark [10] stands for this setting: dose: 200.0 mg/kg/injection, schedule: Q01DX001 (ip), vehicle: saline.

Consider `O=C(CBr)Nc1nccs1`, for which the survivor count is, setting by setting: (dose: 25.0 mg/kg/injection, schedule: Q01DX009 (ip), vehicle: saline) 0 of 6; (dose: 50.0 mg/kg/injection, schedule: Q04DX003 (ip), vehicle: saline) 0 of 6; (dose: 100.0 mg/kg/injection, schedule: Q04DX003 (ip), vehicle: saline) 0 of 6; (dose: 200.0 mg/kg/injection, schedule: Q04DX003 (ip), vehicle: saline) 0 of 6; under setting [1], 0 of 6.

In the case of `CCN(CC)CCCC(C)Nc1ccnc(C)c1` (centres undefined), the survivor count was 0 of 6 (dose: 75.0 mg/kg/injection, schedule: Q04DX003 (ip), vehicle: other); 0 of 6 (dose: 150.0 mg/kg/injection, schedule: Q04DX003 (ip), vehicle: other); 0 of 6 (dose: 300.0 mg/kg/injection, schedule: Q04DX003 (ip), vehicle: other).

On to `CCN(CC)C1CCC(NC(C)=O)CC1` (centres undefined), for which the survivor count by setting is: under setting [2], 3 of 6; under setting [1], 4 of 6.

In the case of `[N-]=[N+]=CC(=O)NCC(N)=O`, the T/C runs as follows: (dose: 250.0 mg/kg/injection, schedule: Q01DX009 (ip), vehicle: other) 129 % of control; (dose: 333.0 mg/kg/injection, schedule: Q01DX Z (ip), vehicle: water) 131 % of control; (dose: 500.0 mg/kg/injection, schedule: Q01DX009 (ip), vehicle: other) 126 % of control; (dose: 500.0 mg/kg/injection, schedule: Q01DX Z (ip), vehicle: water) 145 % of control. The survivor count (dose: 750.0 mg/kg/injection, schedule: Q01DX009 (ip), vehicle: other) is 6 of 6.

Regarding `CC1C2C=CC(C2)C1C(=O)O` (centres undefined), the survivor count (dose: 400.0 mg/kg/injection, schedule: Q04DX003 (ip), vehicle: saline with Tween-80) is listed as 6 of 6.

Take `O=C(CCBr)NCNC(=O)CCBr`: the T/C was 126 % of control (dose: 50.0 mg/kg/injection, schedule: Q01DX009 (ip), vehicle: saline); 148 % of control (dose: 180.0 mg/kg/injection, schedule: Q04DX003 (ip), vehicle: Klucel (hydroxypropylcellulose) (HPC)); 145 % of control (dose: 600.0 mg/kg/injection, schedule: Q04DX003 (ip), vehicle: Klucel (hydroxypropylcellulose) (HPC)). For the same compound, the survivor count was 3 of 6 under setting [3] and 1 of 6 (dose: 300.0 mg/kg/injection, schedule: Q01DX009 (ip), vehicle: saline).

Turning to `Cc1noc(C)c1C=O`, the survivor count under setting [4] is given as 2 of 6.

Consider `C[N+]1(C2CCCCC2)CCCCC1`, for which the survivor count is 1 of 6 and 3 of 6 (dose: 75.0 mg/kg/injection, schedule: Q01DX001 (ip), vehicle: saline); 0 of 6 (2×) and 1 of 6 under setting [5]; 0 of 6 (3×) under setting [6].

`Oc1ccccc1C=NC1CCCCC1.Oc1ccccc1C=NC1CCCCC1.[Co+2]`: under setting [4], the survivor count is 3 of 6.

Take `Cn1cnc2c3cccnc3ccc21`: the survivor count under setting [6] was 1 of 6.

Consider `O=C(NCCCCCCCCCCNC(=O)Nc1cccc(C2=NCCN2)c1)Nc1cccc(C2=NCCN2)c1`, for which the survivor count is listed as 0 of 6 (dose: 40.0 mg/kg/injection, schedule: Q01DX Z (ip), vehicle: water) and 0 of 6 (dose: 80.0 mg/kg/injection, schedule: Q01DX Z (ip), vehicle: water).

Consider `O=C1C=C(Nc2ccccc2)C(=O)N1c1ccccc1`, for which the survivor count under setting [7] is given as 6 of 6.

Consider `CC1(NCCOC(=O)c2ccc(N)cc2)CCCCC1`, for which the survivor count under setting [6] is recorded as 1 of 6.

On to `CCOC(CCl)[N+](C)(C)C` (centres undefined), for which, under setting [8], the survivor count is recorded as 1 of 3.

As to `CCCC[N+](C)(CC(C)C)C1CCCCCCC1` (centres undefined), the survivor count reads like this: (dose: 150.0 mg/kg/injection, schedule: Q01DX001 (ip), vehicle: carboxymethylcellulose (CMC)) 3 of 6; (dose: 300.0 mg/kg/injection, schedule: Q01DX001 (ip), vehicle: carboxymethylcellulose (CMC)) 2 of 6; under setting [6], 0 of 6.

Take `CCCCOC(OCCCC)C(C)(C)CN(C)C`: the survivor count by setting is: (dose: 100.0 mg/kg/injection, schedule: Q04DX002 (ip), vehicle: saline) 0 of 3; under setting [8], 0 of 3; (dose: 400.0 mg/kg/injection, schedule: Q04DX002 (ip), vehicle: saline) 0 of 3.

`O=[N+]([O-])/C=C/c1ccc(Br)cc1`: the survivor count is, setting by setting: under setting [5], 3 of 6; under setting [6], 1 of 6.

As for `O=C(CF)N(O)c1ccc(/C=C/c2ccccc2)cc1`, the survivor count (dose: 400.0 mg/kg/injection, schedule: Q01DX001 (ip), vehicle: carboxymethylcellulose (CMC)) is on record as 0 of 4.

For `O=C(CCC(=O)OCCBr)OCCBr`, the survivor count under setting [4] is 5 of 6.

Take `CCCCCCCCCCCCCCCC(=O)Nc1ccc(C(=O)C[n+]2ccc3c(NC(=O)CCC(=O)OC)cccc3c2)cc1`: the survivor count (dose: 300.0 mg/kg/injection, schedule: Q01DX001 (ip), vehicle: other) is 6 of 6.

In the case of `O=[N+]([O-])c1ccc(C=Nc2ccccc2)s1`, the survivor count under setting [4] is given as 1 of 6.

For `Cc1ccc(C2CCCN2C)cc1` (centres undefined), the survivor count is recorded as 0 of 6 (dose: 200.0 mg/kg/injection, schedule: Q01DX001 (ip), vehicle: acetone) and 0 of 6 (dose: 400.0 mg/kg/injection, schedule: Q01DX001 (ip), vehicle: acetone).

On to `Oc1ccc2ccccc2c1N=Nc1cc[c]([Hg][Cl])cc1`, for which the survivor count reads like this: (dose: 80.0 mg/kg/injection, schedule: Q01DX001 (ip), vehicle: saline) 0 of 4; under setting [9], 0 of 4; under setting [10], 0 of 4; under setting [7], 0 of 4.

Turning to `CNC(=O)Nc1ncnn1Cc1ccccc1`, the survivor count under setting [2] is 6 of 6.

Turning to `Nc1nc(N)c2nc3c(nc2n1)CN(c1ccc(C(=O)O)cc1)C3=O`, under setting [2], the survivor count is given as 1 of 6.

Take `CC(=O)OC1CCC(C(C)(C)C)CC1` (centres undefined): for the setting “dose: 400.0 mg/kg/injection, schedule: Q01DX009 (ip), vehicle: saline with Tween-80”, the survivor count was 0 of 6.

`COc1ccc(Oc2cccc3c2CCN(C)C3)cc1`: the survivor count is, setting by setting: (dose: 100.0 mg/kg/injection, schedule: Q04DX002 (ip), vehicle: Klucel (hydroxypropylcellulose) (HPC)) 3 of 3; (dose: 200.0 mg/kg/injection, schedule: Q04DX002 (ip), vehicle: Klucel (hydroxypropylcellulose) (HPC)) 1 of 3; (dose: 400.0 mg/kg/injection, schedule: Q04DX002 (ip), vehicle: Klucel (hydroxypropylcellulose) (HPC)) 0 of 3.

For `COc1ccc(CC#N)cc1`, the survivor count is 3 of 3 (dose: 20.0 mg/kg/injection, schedule: Q04DX002 (ip), vehicle: Klucel (hydroxypropylcellulose) (HPC)); 1 of 3 (dose: 40.0 mg/kg/injection, schedule: Q04DX002 (ip), vehicle: Klucel (hydroxypropylcellulose) (HPC)); 2 of 4 (dose: 50.0 mg/kg/injection, schedule: Q01DX001 (ip), vehicle: saline); 2 of 4 under setting [9]; 0 of 4 under setting [10]; 0 of 4 under setting [7].

In the case of `O=[N+]([O-])c1ccc2ncccc2c1`, under setting [4], the survivor count is recorded as 0 of 6.

In the case of `C=C(C)CN`, the survivor count runs as follows: under setting [3], 3 of 6; under setting [1], 0 of 6.

`CC(=O)NC1CCC(/C=C(\C#N)C2CCC(C)CC2)CC1` (centres undefined): the survivor count (dose: 400.0 mg/kg/injection, schedule: Q04DX002 (ip), vehicle: saline with Tween-80) is 3 of 3.

Consider `CC1=C(N=[N+]=[N-])C(=O)C(C)=C(N=[N+]=[N-])C1=O`, for which the survivor count runs as follows: under setting [9], 4 of 4; under setting [10], 1 of 4; under setting [7], 0 of 4.
